This is an account of results in paper PMC5996148.

Some test systems named below: ARL5A (human); ARL6 (human); ARL8B (human); ARL9 (human); ASB11 (human); ASB6 (human); ASMTL (human).
What all share (experiment): protein microarray (ProtoArray v5.0), streptavidin-Alexa Fluor 647
Holding throughout (details): 3'-biotin; 20 mM Tris (pH 7.5), 5 mM MgCl2, 100 mM KCl, 0.1% Tween-20, A/T-rich and random oligonucleotide blockers; temperature not stated; high values mean tight binding

The target in the next test is ARPC5 (UniProt O15511).
The next test deals with T1, ASNS (UniProt P08243).
T1 sequence: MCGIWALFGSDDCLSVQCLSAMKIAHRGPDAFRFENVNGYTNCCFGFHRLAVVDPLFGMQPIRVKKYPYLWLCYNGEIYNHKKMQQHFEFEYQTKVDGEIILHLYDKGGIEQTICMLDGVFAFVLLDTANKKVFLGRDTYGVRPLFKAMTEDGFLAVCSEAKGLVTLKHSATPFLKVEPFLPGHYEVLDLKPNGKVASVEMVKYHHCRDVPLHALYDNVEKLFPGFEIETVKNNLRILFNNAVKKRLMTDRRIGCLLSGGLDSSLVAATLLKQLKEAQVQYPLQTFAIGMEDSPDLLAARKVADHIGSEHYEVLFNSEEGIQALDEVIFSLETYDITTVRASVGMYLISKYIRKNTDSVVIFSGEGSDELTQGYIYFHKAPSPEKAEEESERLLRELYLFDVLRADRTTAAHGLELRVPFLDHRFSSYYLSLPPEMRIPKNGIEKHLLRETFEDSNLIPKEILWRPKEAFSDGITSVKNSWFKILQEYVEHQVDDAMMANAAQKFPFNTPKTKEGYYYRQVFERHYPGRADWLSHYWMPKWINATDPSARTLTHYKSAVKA

Another test has as its target ASXL1 (UniProt Q8IXJ9).

“And” between values parts separate entries of the source, which are not always exact repeats. Identical values can stand only once. Some of the results follow. For some of these results: The source does not settle which construct or isoform was used.

In the case of “GGTGACAGGGGTATGGGGAGGGG [G4-2 biotinylated (Ct1)]”, the binding signal was -0.386 z-score in the test on ARL5A (human); -0.376 z-score with ARL6 (human); -0.377 z-score in the test on ARL8B (human); -0.371 z-score with ARL9 (human); -0.36 z-score with ARPC5; -0.371 z-score in the test with ASB11 (human). The binding signal in the test on ASB6 (human) was -0.375 z-score; in the test with ASMTL (human), -0.386 z-score and -0.391 z-score; with ASNS it was -0.397 z-score; in the test with ASXL1, 6.79 z-score.
